PubChem BioAssay AID1259308, NCATS – 2017

Purpose: 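Candidate targets for better recombinant protein yield in mammalian cells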 (primary screen)
Cells: human HEK293 embryonic kidney cells stably expressing firefly luciferase (HEK-CMV-Luc2-Hygro)
Reagent: single siRNA against human genes, 0.8 pmol siRNA per well
Time to read-out: 72 h
Measurement: 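Luciferase light (ONE-Glo) measured on one replicate plate set and viability (CellTiter-Glo) on the other, scaled to a negative control siRNA, with robust z-scores and luciferase per cell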
Direction: total luciferase, z-score and total luciferase, % of control: higher = more reporter protein produced; luciferase per cell, z-score: higher = more reporter output per viable cell; viable cells, % of control: higher = more viable cells
Call rule: 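An siRNA counts as active if its total luciferase robust z-score exceeds 3; genes with two or more such siRNAs out of three were retested with fresh siRNAs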
Calls: active = raised luciferase; inactive = no rise
The whole screen tested about 59,000 reagents; shown is a part drawn at random. Of all reagents, about 1,510 (2.6%) were called active. 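Calls use total luciferase alone and ignore viability, so some active siRNAs may act by altering cell number.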 Reagents against one gene are numbered here.

The first 4 entries, to show the layout:
no.	target	reagent	total luciferase, z-score	total luciferase, % of control	luciferase per cell, z-score	viable cells, % of control	activity call
1	NRP2 (neuropilin 2)	1	-1.04	61.2	-0.101	70.2	inactive
2	NRP2 (neuropilin 2)	2	2.6	134	1.79	93.1	inactive
3	NRP2 (neuropilin 2)	3	0.814	98.1	1.49	74	inactive
4	SCRT2 (scratch family transcriptional repressor 2)	1	-0.14	79.1	-0.173	92.5	inactive

The list itself, from the first entry:
no.	target	reagent	total luciferase, z-score	total luciferase, % of control	luciferase per cell, z-score	viable cells, % of control	activity call
1	NRP2 (neuropilin 2)	1	-1.04	61.2	-0.101	70.2	inactive
2	NRP2 (neuropilin 2)	2	2.6	134	1.79	93.1	inactive
3	NRP2 (neuropilin 2)	3	0.814	98.1	1.49	74	inactive
4	SCRT2 (scratch family transcriptional repressor 2)	1	-0.14	79.1	-0.173	92.5	inactive
5	SCRT2 (scratch family transcriptional repressor 2)	2	2.35	129	1.61	94.1	inactive
6	SCRT2 (scratch family transcriptional repressor 2)	3	1.69	116	1.17	94.9	inactive
7	NME5 (NME/NM23 family member 5)	1	0.981	101	1.41	78.3	inactive
8	NME5 (NME/NM23 family member 5)	2	1.01	102	0.987	87.9	inactive
9	NME5 (NME/NM23 family member 5)	3	0.146	84.8	-0.472	107	inactive
10	LARS1 (leucyl-tRNA synthetase 1)	1	0.343	88.7	0.296	91.7	inactive
11	LARS1 (leucyl-tRNA synthetase 1)	2	-0.0198	81.5	-0.428	102	inactive
12	LARS1 (leucyl-tRNA synthetase 1)	3	-0.084	80.2	-0.375	98.9	inactive
13	PCDHB7 (protocadherin beta 7)	1	-1.46	52.9	-1.71	92.8	inactive
14	PCDHB7 (protocadherin beta 7)	2	-0.416	73.6	-0.749	100	inactive
15	PCDHB7 (protocadherin beta 7)	3	-0.0865	80.2	-0.311	97.2	inactive
16	PITPNM1 (phosphatidylinositol transfer protein membrane associated 1)	1	0.543	92.7	0.0476	102	inactive
17	PITPNM1 (phosphatidylinositol transfer protein membrane associated 1)	2	0.00576	82	0.0751	89.8	inactive
18	PITPNM1 (phosphatidylinositol transfer protein membrane associated 1)	3	0.0475	82.8	-0.216	98	inactive
19	FOXR2 (forkhead box R2)	1	-1.1	59.9	-1.16	91	inactive
20	FOXR2 (forkhead box R2)	2	0.682	95.5	0.937	83.3	inactive
21	FOXR2 (forkhead box R2)	3	0.44	90.6	1.6	66.5	inactive
22	SLC25A40	1	-0.528	71.4	0.114	77.4	inactive
23	SLC25A40	2	0.603	93.9	0.651	88.4	inactive
24	SLC25A40	3	-0.794	66.1	-0.739	89.7	inactive
25	SNX29P1 (sorting nexin 29 pseudogene 1)	1	0.625	94.3	0.92	82.7	inactive
26	SNX29P1 (sorting nexin 29 pseudogene 1)	2	0.471	91.3	0.55	88.2	inactive
27	SNX29P1 (sorting nexin 29 pseudogene 1)	3	-1.19	58.2	-0.563	75.4	inactive
28	CUTA (cutA divalent cation tolerance homolog)	1	-0.641	69.1	-1.13	104	inactive
29	CUTA (cutA divalent cation tolerance homolog)	2	0.617	94.2	0.0152	105	inactive
30	CUTA (cutA divalent cation tolerance homolog)	3	0.096	83.8	-0.166	97.8	inactive
31	EPHX3 (epoxide hydrolase 3)	1	1.79	117	2.69	64.6	inactive
32	EPHX3 (epoxide hydrolase 3)	2	-0.146	79	0.341	80.7	inactive
33	EPHX3 (epoxide hydrolase 3)	3	0.64	94.6	-0.418	118	inactive
34	ST3GAL2 (ST3 beta-galactoside alpha-2,3-sialyltransferase 2)	1	-1.79	46.2	-1.54	77.5	inactive
35	ST3GAL2 (ST3 beta-galactoside alpha-2,3-sialyltransferase 2)	2	-0.966	62.7	-0.137	72.6	inactive
36	ST3GAL2 (ST3 beta-galactoside alpha-2,3-sialyltransferase 2)	3	0.244	86.7	-0.295	105	inactive
37	OSGIN1 (oxidative stress induced growth inhibitor 1)	1	0.108	84	-0.415	105	inactive
38	OSGIN1 (oxidative stress induced growth inhibitor 1)	2	-0.235	77.2	-0.099	88.6	inactive
39	OSGIN1 (oxidative stress induced growth inhibitor 1)	3	-0.155	78.8	0.217	83.2	inactive
40	TSNARE1 (t-SNARE domain containing 1)	1	1.01	102	1.06	86.2	inactive
41	TSNARE1 (t-SNARE domain containing 1)	2	0.999	102	1.01	87.1	inactive
42	TSNARE1 (t-SNARE domain containing 1)	3	-0.817	65.6	-0.272	78.8	inactive
43	PRKAR1A	1	-1.84	45.2	-1.85	82.3	inactive
44	PRKAR1A	2	3.08	143	1.72	102	active
45	PRKAR1A	3	1.24	107	0.637	101	inactive
46	GAB4 (GRB2 associated binding protein family member 4)	1	-1.86	44.9	-0.848	62.7	inactive
47	GAB4 (GRB2 associated binding protein family member 4)	2	-0.469	72.6	1	62.3	inactive
48	GAB4 (GRB2 associated binding protein family member 4)	3	0.338	88.6	0.395	89.2	inactive
49	C10orf71 (chromosome 10 open reading frame 71)	1	-0.401	73.9	-0.169	86.3	inactive
50	C10orf71 (chromosome 10 open reading frame 71)	2	-0.945	63.1	-0.568	81.9	inactive
51	C10orf71 (chromosome 10 open reading frame 71)	3	0.449	90.8	-0.321	110	inactive
52	AIFM3 (AIF family member 3)	1	-2.02	41.6	-1.06	61.5	inactive
53	AIFM3 (AIF family member 3)	2	0.987	102	0.686	94.7	inactive
54	AIFM3 (AIF family member 3)	3	-2.66	28.9	-2.82	67.9	inactive
55	HRH2 (histamine receptor H2)	1	2.15	125	1.2	101	inactive
56	HRH2 (histamine receptor H2)	2	-0.282	76.3	-0.452	96	inactive
57	HRH2 (histamine receptor H2)	3	2.44	130	2.37	78.1	inactive
58	TNKS2 (tankyrase 2)	1	1.74	116	2.17	73.5	inactive
59	TNKS2 (tankyrase 2)	2	0.587	93.6	1.26	75	inactive
60	TNKS2 (tankyrase 2)	3	-1.02	61.7	-0.804	85.2	inactive
61	CHCHD10 (coiled-coil-helix-coiled-coil-helix domain containing 10)	1	-2.72	27.8	-2.78	64.7	inactive
62	CHCHD10 (coiled-coil-helix-coiled-coil-helix domain containing 10)	2	-0.996	62.1	1.54	46.2	inactive
63	CHCHD10 (coiled-coil-helix-coiled-coil-helix domain containing 10)	3	-0.422	73.5	-0.0162	82.5	inactive
64	REG1A (regenerating family member 1 alpha)	1	-0.784	66.3	-1.35	106	inactive
65	REG1A (regenerating family member 1 alpha)	2	1.82	118	0.981	102	inactive
66	REG1A (regenerating family member 1 alpha)	3	-1.57	50.7	-1.7	88.7	inactive
67	HEMK1	1	-0.734	67.3	-0.599	88	inactive
68	HEMK1	2	0.179	85.4	0.792	77.5	inactive
69	HEMK1	3	-2.26	36.9	-2.51	79.9	inactive
70	SMDT1 (single-pass membrane protein with aspartate rich tail 1)	1	0.541	92.7	-0.0171	104	inactive
71	SMDT1 (single-pass membrane protein with aspartate rich tail 1)	2	-1.23	57.4	-1.15	86.8	inactive
72	SMDT1 (single-pass membrane protein with aspartate rich tail 1)	3	0.178	85.4	0.479	84.2	inactive
73	PFDN1 (prefoldin subunit 1)	1	0.384	89.5	2.05	58.3	inactive
74	PFDN1 (prefoldin subunit 1)	2	-0.459	72.8	-0.387	90	inactive
75	PFDN1 (prefoldin subunit 1)	3	-0.0927	80	-0.0479	90.6	inactive
